Assay results published in doi:10.1101/2025.05.06.651509 (bioRxiv, 2025).
These are yes or no findings as the source states them, for the method shown. Binding seen in cells or lysates may run through a third protein. A yes stands for co-enrichment or nearness to the bait. Other partners may have been found. Sequences can lack the tags named with a protein. Blank lines part the entries; values can stand above or below the binder they belong to.

Molecular target: T1, HA-tagged TSC22D4 (UniProt Q9Y3Q8)
T1 sequence: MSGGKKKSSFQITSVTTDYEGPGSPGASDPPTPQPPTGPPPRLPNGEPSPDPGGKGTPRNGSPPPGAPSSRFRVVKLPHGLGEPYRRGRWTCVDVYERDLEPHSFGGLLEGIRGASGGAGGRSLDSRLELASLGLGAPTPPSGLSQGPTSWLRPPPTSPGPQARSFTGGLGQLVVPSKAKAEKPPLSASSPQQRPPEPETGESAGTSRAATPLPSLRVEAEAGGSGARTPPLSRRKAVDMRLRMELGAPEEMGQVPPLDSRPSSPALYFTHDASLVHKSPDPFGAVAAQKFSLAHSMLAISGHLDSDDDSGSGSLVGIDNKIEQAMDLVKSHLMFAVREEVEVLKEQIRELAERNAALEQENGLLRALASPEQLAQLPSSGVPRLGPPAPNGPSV
Assay: affinity purification with mass spectrometry

binding: binds
B1: NRBP2 (protein, UniProt Q91V36 1-499)
chain: MAAPEPAPRRGREREREDESEDESDILEESPCGRWQKRREQVNQGNMPGIQSTFLAMDTEEGVEVVWNELHFGDRKAFAAHEEKIQTMFEQLALVDHPNIVKLHKYWLDASEARARVIFITEYVSSGSLKQFLKKTKKNHKAMNARAWKRWCTQILSALSFLHACSPPIIHGNLTSDTIFIQHNGLIKIGSVWYRIFSNALPDDLRSPIRAEREELRNLHFFPPEYGEVNDGTAVDIFSFGMCALEMAVLEIQANGDTRVTEEAIARARHSLSDPNMREFILSCLARDPARRPSAHNLLFHRVLFEVHSLKLLAAHCFIQHQYLMPENVVEEKTKAMDLHAVLAEMPQPHGPPMQWRYSEVSFLELDKFLEDVRNGIYPLMNFAAARPLGLPRVLAPPPEEAQKAKTPTPEPFDSETRKVVQMQCNLERSEDKARWHLTLLLVLEDRLHRQLTYDLLPTDSAQDLAAELVHYGFLHEDDRTKLAAFLETTFLKYRGTQA

binding: binds
B2: AACS (enzyme, UniProt Q9D2R0 1-672)
chain: MSKLARLEREEIMECQVMWEPDSKKDTQMDRFRAAVGTACGLALGNYNDLYHWSVRSYMDFWAEFWKFSGIVYSRMYDEVVDTSKGIADVPEWFRGSRLNYAENLLRHKENDRVALYVAREGREEIVKVTFEELRQQVALFAAAMRKMGVKKGDRVVGYLPNSAHAVEAMLAAASIGAIWSSTSPDFGVNGVLDRFSQIQPKLIFSVEAVVYNGKEHGHLEKLQRVVKGLPDLQRVVLIPYVLPREKIDISKIPNSVFLDDFLASGTGAQAPQLEFEQLPFSHPLFIMFSSGTTGAPKCMVHSAGGTLIQHLKEHMLHGNMTSSDILLYYTTVGWMMWNWMVSALATGASLVLYDGSPLVPTPNVLWDLVDRIGITILGTGAKWLSVLEEKDMKPVETHNLHTLHTILSTGSPLKAQSYEYVYRCIKSSVLLGSISGGTDIISCFMGQNSSIPVYKGEIQARNLGMAVEAWDEEGKAVWGASGELVCTKPIPCQPTHFWNDENGSKYRKAYFSKFPGVWAHGDYCRINPKTGGIIMLGRSDGTLNPNGVRFGSSEIYNIVEAFDEVEDSLCVPQYNRDGEERVVLFLKMASGHTFQPDLVKRIRDAIRLGLSARHVPSLILETRGIPYTLNGKKVEVAVKQVMAGRTVEHRGAFSNPETLDLYRDIPELQDF
